Test results: the supplement of paper PMC6411743
± gives the standard deviation of the averaged measurements. This is a selection; strong and weak results do not stand in their true shares.

Chains of the proteins cited; added tags and fusions are not shown. Lines headed by an entry give the natural chain unless they say otherwise; changes in a name come on top.
UniProt P50238: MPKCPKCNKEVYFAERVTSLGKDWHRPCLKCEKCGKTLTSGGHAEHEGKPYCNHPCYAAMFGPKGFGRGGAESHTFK
UniProt P52655, whole entry: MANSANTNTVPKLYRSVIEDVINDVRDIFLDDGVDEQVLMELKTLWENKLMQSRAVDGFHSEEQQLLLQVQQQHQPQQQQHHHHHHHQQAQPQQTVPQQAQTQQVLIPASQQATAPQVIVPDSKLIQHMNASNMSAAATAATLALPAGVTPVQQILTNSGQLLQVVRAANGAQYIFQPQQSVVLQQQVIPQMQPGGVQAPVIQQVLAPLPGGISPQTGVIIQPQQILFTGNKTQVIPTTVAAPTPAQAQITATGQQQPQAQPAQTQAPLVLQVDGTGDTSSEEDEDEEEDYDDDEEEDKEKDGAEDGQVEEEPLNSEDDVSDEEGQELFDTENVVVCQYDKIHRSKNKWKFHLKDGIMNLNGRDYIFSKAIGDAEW
UniProt P51608, whole entry: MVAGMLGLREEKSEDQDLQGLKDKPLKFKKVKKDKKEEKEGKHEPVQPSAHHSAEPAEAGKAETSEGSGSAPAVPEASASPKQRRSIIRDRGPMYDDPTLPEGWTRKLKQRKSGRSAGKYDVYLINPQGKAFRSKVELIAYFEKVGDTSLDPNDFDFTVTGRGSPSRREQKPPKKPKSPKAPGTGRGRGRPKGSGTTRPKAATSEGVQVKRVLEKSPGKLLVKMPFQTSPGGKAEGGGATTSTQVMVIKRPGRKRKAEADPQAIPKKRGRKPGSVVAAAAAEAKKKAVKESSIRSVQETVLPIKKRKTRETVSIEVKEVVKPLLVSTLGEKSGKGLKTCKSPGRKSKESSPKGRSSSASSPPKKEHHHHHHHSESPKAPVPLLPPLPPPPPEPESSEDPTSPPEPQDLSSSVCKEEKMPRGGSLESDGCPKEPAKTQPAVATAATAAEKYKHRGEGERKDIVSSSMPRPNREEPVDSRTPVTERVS
UniProt P50502: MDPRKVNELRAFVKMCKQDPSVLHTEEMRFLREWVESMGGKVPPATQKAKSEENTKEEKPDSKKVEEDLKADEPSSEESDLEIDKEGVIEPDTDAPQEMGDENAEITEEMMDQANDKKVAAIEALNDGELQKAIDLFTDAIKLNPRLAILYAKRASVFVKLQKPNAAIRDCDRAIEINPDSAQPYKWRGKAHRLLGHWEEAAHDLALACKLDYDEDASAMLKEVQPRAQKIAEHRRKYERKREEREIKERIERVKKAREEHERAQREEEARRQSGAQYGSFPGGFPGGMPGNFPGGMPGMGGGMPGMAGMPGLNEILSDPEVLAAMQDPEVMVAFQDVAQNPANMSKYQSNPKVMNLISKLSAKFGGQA
UniProt P42025, whole entry: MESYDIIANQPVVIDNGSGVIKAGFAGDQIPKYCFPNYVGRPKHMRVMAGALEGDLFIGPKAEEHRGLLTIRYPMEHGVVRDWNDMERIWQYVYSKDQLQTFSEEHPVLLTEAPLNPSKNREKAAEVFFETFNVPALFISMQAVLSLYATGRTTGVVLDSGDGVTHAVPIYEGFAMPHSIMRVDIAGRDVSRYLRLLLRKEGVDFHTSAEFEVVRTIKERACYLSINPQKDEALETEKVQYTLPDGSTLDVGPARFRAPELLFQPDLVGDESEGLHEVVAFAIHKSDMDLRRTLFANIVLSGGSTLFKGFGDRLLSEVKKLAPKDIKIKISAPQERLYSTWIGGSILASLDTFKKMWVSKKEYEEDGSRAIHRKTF
UniProt P41091, whole entry: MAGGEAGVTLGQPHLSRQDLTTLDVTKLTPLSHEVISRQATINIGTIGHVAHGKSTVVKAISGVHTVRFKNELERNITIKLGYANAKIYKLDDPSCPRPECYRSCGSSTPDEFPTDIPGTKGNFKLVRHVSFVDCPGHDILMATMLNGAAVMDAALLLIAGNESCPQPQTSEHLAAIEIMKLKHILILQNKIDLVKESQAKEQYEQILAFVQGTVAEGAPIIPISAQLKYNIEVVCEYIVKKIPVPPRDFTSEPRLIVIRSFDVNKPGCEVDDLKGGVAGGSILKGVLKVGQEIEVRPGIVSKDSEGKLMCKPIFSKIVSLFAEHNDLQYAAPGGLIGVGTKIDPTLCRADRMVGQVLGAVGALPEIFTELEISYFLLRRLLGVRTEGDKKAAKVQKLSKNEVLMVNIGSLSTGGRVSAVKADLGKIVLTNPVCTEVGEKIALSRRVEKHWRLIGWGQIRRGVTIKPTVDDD
UniProt P50748: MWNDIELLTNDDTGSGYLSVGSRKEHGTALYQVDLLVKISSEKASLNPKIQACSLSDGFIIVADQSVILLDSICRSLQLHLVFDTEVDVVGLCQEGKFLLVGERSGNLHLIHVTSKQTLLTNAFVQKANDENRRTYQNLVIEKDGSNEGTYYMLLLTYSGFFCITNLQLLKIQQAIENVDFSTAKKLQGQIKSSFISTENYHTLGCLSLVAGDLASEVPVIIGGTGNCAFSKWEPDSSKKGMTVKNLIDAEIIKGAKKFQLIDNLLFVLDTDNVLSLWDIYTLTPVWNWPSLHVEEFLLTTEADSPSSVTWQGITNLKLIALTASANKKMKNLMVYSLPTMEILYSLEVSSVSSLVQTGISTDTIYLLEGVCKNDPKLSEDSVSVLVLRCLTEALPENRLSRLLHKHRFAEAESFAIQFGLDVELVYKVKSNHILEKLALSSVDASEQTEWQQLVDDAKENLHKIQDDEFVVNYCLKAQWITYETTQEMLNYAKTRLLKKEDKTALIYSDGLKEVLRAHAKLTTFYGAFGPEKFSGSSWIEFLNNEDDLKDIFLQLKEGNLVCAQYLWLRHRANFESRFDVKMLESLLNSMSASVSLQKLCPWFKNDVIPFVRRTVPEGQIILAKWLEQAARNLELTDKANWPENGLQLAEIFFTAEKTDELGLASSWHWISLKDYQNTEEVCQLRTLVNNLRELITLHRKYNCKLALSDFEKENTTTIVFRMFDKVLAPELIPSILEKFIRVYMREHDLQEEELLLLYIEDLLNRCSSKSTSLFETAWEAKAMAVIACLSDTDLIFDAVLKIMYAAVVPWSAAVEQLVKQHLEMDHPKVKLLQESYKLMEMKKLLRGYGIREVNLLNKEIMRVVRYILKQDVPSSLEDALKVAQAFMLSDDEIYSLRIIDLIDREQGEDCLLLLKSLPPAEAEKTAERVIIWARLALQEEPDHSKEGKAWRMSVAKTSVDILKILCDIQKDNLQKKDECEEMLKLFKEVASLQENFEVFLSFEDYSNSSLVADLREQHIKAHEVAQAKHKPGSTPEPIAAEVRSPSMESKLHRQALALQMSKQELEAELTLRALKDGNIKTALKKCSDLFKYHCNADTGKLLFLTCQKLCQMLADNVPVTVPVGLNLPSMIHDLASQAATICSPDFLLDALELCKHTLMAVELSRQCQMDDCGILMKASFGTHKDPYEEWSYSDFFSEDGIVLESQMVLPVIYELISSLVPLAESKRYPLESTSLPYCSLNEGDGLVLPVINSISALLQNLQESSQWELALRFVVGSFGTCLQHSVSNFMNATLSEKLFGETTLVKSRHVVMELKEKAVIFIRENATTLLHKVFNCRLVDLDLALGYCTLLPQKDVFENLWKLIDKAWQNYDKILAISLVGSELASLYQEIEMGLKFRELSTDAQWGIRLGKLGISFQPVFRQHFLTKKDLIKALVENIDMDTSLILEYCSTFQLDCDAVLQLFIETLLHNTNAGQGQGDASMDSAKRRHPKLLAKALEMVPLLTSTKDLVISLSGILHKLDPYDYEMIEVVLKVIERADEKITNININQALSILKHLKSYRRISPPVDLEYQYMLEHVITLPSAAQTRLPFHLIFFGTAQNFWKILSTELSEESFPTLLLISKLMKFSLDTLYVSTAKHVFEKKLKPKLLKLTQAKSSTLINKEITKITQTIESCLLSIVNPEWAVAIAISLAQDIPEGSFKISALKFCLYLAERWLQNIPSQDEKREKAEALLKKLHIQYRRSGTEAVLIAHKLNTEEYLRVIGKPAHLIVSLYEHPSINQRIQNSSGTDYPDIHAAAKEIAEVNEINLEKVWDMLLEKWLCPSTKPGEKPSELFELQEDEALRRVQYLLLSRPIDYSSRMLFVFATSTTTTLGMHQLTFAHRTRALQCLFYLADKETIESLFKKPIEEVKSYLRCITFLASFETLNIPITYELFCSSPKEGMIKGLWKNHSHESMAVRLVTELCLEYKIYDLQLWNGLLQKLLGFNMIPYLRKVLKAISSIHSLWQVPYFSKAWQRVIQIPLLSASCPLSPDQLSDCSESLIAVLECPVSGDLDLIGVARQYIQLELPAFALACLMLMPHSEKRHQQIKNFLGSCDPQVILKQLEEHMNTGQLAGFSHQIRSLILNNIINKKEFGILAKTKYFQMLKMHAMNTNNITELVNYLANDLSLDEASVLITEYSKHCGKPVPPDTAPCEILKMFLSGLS
UniProt P51580: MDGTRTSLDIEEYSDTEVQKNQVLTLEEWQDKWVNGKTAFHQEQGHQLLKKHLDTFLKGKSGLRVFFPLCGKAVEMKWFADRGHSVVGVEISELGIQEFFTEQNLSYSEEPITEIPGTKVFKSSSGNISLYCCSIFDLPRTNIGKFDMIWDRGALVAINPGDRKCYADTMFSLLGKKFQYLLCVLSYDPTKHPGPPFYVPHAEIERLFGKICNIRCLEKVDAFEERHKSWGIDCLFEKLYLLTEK
UniProt P49773: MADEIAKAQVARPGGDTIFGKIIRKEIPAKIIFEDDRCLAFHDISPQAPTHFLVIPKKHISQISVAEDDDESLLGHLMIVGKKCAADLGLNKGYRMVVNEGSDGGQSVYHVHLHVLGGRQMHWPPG
UniProt P53621: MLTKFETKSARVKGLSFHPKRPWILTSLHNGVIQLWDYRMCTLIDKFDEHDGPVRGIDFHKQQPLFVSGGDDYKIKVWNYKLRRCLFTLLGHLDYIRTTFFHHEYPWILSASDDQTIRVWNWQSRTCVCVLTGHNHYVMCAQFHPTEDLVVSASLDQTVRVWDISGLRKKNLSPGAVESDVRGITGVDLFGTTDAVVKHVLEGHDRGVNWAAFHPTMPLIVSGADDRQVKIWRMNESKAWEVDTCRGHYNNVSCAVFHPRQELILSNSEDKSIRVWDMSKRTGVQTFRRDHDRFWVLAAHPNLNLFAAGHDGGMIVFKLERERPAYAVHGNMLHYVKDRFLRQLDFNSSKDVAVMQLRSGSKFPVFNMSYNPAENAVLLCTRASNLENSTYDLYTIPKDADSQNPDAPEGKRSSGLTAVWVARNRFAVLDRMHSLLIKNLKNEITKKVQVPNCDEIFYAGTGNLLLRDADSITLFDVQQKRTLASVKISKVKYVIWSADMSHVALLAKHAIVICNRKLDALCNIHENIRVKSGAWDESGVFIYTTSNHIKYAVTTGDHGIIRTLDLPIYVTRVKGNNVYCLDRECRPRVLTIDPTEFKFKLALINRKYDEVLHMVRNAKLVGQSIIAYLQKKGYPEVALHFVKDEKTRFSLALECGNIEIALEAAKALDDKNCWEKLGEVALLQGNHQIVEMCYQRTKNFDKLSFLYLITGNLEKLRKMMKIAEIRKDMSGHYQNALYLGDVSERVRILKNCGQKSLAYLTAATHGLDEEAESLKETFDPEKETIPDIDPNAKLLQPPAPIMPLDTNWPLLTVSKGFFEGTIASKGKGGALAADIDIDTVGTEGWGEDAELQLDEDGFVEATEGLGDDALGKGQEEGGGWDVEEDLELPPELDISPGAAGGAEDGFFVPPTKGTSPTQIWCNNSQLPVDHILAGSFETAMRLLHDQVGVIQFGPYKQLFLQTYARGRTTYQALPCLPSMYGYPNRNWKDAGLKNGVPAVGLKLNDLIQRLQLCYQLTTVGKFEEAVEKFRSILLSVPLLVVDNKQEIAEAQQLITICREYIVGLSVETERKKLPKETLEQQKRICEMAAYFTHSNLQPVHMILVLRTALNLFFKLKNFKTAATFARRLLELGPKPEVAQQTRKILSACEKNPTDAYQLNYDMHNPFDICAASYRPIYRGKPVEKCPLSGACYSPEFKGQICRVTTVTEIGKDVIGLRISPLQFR
UniProt P54105: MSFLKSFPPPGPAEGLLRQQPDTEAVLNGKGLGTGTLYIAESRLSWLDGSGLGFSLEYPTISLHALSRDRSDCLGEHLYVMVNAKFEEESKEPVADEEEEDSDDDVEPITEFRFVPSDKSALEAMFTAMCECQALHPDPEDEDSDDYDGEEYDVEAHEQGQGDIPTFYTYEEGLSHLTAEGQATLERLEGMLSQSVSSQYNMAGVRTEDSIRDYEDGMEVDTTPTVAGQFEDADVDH
UniProt P54619: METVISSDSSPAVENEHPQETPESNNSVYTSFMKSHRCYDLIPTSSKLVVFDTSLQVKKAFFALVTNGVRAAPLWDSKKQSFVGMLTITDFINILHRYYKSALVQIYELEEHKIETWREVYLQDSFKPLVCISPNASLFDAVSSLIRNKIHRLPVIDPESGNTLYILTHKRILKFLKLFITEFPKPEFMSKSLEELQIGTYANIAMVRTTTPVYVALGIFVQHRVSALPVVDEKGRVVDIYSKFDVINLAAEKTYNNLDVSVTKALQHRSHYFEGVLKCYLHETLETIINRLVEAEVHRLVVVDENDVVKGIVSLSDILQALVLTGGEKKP

Compound: Nc1ncnc2c1ncn2[C@@H]1O[C@H](COP(=O)(O)OP(=O)(O)NP(=O)(O)O)[C@@H](O)[C@H]1O [adenylyl imidodiphosphate]
Experiment: NP40-soluble protein abundance relative to vehicle (solubility fold change) (ratio); higher = more soluble protein in presence of AMP-PNP
Method in brief: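 In three independent experiments, Jurkat crude lysate made by Dounce homogenisation was treated for 10 min at room temperature and then 3 min at 37 °C with eight concentrations ranging from 0.1 to 10 mM. It was then solubilised with 0.8% NP40 plus benzonase for 60 min at 4 °C and ultracentrifuged. The supernatant was TMT-labelled for LC-MS/MS, and each value is the fold change against the detergent-processed vehicle for the same replicate, using vsn-normalised intensities.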

Target	NP40-soluble protein abundance (concentration: 1mM)	NP40-soluble protein abundance (concentration: 2mM)	NP40-soluble protein abundance (concentration: 4mM)	NP40-soluble protein abundance (concentration: 6mM)	NP40-soluble protein abundance (concentration: 8mM)	NP40-soluble protein abundance (concentration: 10mM)
UniProt P41229 and related entries	1.05 ± 0.036	1.01 ± 0.017	1 ± 0.024	0.981 ± 0.056	0.995 ± 0.036	0.984 ± 0.042
RPL14 (UniProt P50914)	0.983 ± 0.082	0.958 ± 0.057	0.938 ± 0.13	0.862 ± 0.15	0.759 ± 0.071	0.894 ± 0.24
UniProt P49407-2|P49407	1.04 ± 0.022	1.04 ± 0.015	1.05 ± 0.034	1.08 ± 0.078	1.11 ± 0.038	1.11 ± 0.022
UniProt P54136 and related entries	0.957 ± 0.051	0.888 ± 0.14	0.92 ± 0.1	0.92 ± 0.097	0.945 ± 0.13	0.894 ± 0.16
PIK3CA (UniProt P42336)	1.01 ± 0.035	0.935 ± 0.068	0.992 ± 0.011	0.951 ± 0.035	0.964 ± 0.057	0.938 ± 0.033
UniProt P53004 and related entries	0.964 ± 0.052	0.891 ± 0.052	0.936 ± 0.043	0.982 ± 0.067	1.01 ± 0.049	0.949 ± 0.038
RBM5 (UniProt P52756)	1.05 ± 0.026	1.072 ± 0.0062	1.09 ± 0.038	1.06 ± 0.071	1.06 ± 0.061	1.1 ± 0.071
CRIP1 (UniProt P50238)	1.01 ± 0.041	1.1 ± 0.033	0.963 ± 0.059	0.955 ± 0.027	0.962 ± 0.045	0.951 ± 0.063
HIRA (UniProt P54198)	1.02 ± 0.013	0.995 ± 0.024	1 ± 0.035	1.01 ± 0.013	1.01 ± 0.023	1.02 ± 0.017
UniProt P53677 and related entries	1.01 ± 0.016	1.01 ± 0.021	1 ± 0.015	0.995 ± 0.014	1.03 ± 0.032	0.998 ± 0.054
GTF2A1 (UniProt P52655)	0.999 ± 0.021	1 ± 0.012	0.971 ± 0.031	0.995 ± 0.016	0.986 ± 0.033	0.975 ± 0.039
UniProt P46108 and related entries	1.05 ± 0.046	1.071 ± 0.0065	1.07 ± 0.03	1.044 ± 0.0058	1.08 ± 0.044	1.08 ± 0.066
ARHGDIB (UniProt P52566)	1.04 ± 0.019	1.05 ± 0.043	0.98 ± 0.067	1.03 ± 0.035	1.05 ± 0.024	1.05 ± 0.04
UniProt P51608-2|P51608 and related entries	1.04 ± 0.023	1.06 ± 0.016	1.04 ± 0.046	1.07 ± 0.019	1.07 ± 0.028	1.15 ± 0.042
ST13 (UniProt P50502)	0.965 ± 0.024	1.06 ± 0.12	1 ± 0.024	1.03 ± 0.031	0.976 ± 0.028	1.01 ± 0.03
RGS19 (UniProt P49795)	1 ± 0.029	1.01 ± 0.031	0.9813 ± 0.0014	0.996 ± 0.031	0.995 ± 0.026	0.98 ± 0.014
RBM25 (UniProt P49756)	1.02 ± 0.05	1.09 ± 0.029	1.054 ± 0.0066	1.05 ± 0.038	1.07 ± 0.023	1.15 ± 0.024
UniProt P46100 and related entries	1.03 ± 0.011	1.06 ± 0.038	1.049 ± 0.0066	1.05 ± 0.065	1.06 ± 0.062	1.1 ± 0.047
MTOR (UniProt P42345)	0.982 ± 0.033	0.938 ± 0.07	0.971 ± 0.019	0.932 ± 0.025	0.938 ± 0.021	0.9298 ± 0.0017
DHPS (UniProt P49366)	1.02 ± 0.012	1.01 ± 0.024	1 ± 0.029	0.989 ± 0.024	0.977 ± 0.015	0.975 ± 0.04

A second format for some results above:
Target,NP40-soluble protein abundance (concentration: 1mM),NP40-soluble protein abundance (concentration: 2mM),NP40-soluble protein abundance (concentration: 4mM),NP40-soluble protein abundance (concentration: 6mM),NP40-soluble protein abundance (concentration: 8mM),NP40-soluble protein abundance (concentration: 10mM)
HIRA (UniProt P54198),1.02 ± 0.013,0.995 ± 0.024,1 ± 0.035,1.01 ± 0.013,1.01 ± 0.023,1.02 ± 0.017
UniProt P53677 and related entries,1.01 ± 0.016,1.01 ± 0.021,1 ± 0.015,0.995 ± 0.014,1.03 ± 0.032,0.998 ± 0.054
GTF2A1 (UniProt P52655),0.999 ± 0.021,1 ± 0.012,0.971 ± 0.031,0.995 ± 0.016,0.986 ± 0.033,0.975 ± 0.039
UniProt P46108 and related entries,1.05 ± 0.046,1.071 ± 0.0065,1.07 ± 0.03,1.044 ± 0.0058,1.08 ± 0.044,1.08 ± 0.066
ARHGDIB (UniProt P52566),1.04 ± 0.019,1.05 ± 0.043,0.98 ± 0.067,1.03 ± 0.035,1.05 ± 0.024,1.05 ± 0.04
UniProt P51608-2|P51608 and related entries,1.04 ± 0.023,1.06 ± 0.016,1.04 ± 0.046,1.07 ± 0.019,1.07 ± 0.028,1.15 ± 0.042
ST13 (UniProt P50502),0.965 ± 0.024,1.06 ± 0.12,1 ± 0.024,1.03 ± 0.031,0.976 ± 0.028,1.01 ± 0.03
RGS19 (UniProt P49795),1 ± 0.029,1.01 ± 0.031,0.9813 ± 0.0014,0.996 ± 0.031,0.995 ± 0.026,0.98 ± 0.014
RBM25 (UniProt P49756),1.02 ± 0.05,1.09 ± 0.029,1.054 ± 0.0066,1.05 ± 0.038,1.07 ± 0.023,1.15 ± 0.024
UniProt P46100 and related entries,1.03 ± 0.011,1.06 ± 0.038,1.049 ± 0.0066,1.05 ± 0.065,1.06 ± 0.062,1.1 ± 0.047
MTOR (UniProt P42345),0.982 ± 0.033,0.938 ± 0.07,0.971 ± 0.019,0.932 ± 0.025,0.938 ± 0.021,0.9298 ± 0.0017
DHPS (UniProt P49366),1.02 ± 0.012,1.01 ± 0.024,1 ± 0.029,0.989 ± 0.024,0.977 ± 0.015,0.975 ± 0.04

(listing goes on)

Target	NP40-soluble protein abundance (concentration: 1mM)	NP40-soluble protein abundance (concentration: 2mM)	NP40-soluble protein abundance (concentration: 4mM)	NP40-soluble protein abundance (concentration: 6mM)	NP40-soluble protein abundance (concentration: 8mM)	NP40-soluble protein abundance (concentration: 10mM)
CDKN2D (UniProt P55273)	0.993 ± 0.051	0.978 ± 0.023	0.964 ± 0.024	0.9304 ± 0.0073	0.9717 ± 0.0056	0.9 ± 0.039
ACTR1B (UniProt P42025)	1 ± 0.062	0.927 ± 0.12	0.983 ± 0.071	0.986 ± 0.029	0.965 ± 0.063	0.961 ± 0.091
RFC5 (UniProt P40937)	1.02 ± 0.027	0.985 ± 0.096	1.05 ± 0.052	1.11 ± 0.037	1.13 ± 0.043	1.13 ± 0.071
UniProt P49757 and related entries	1.05 ± 0.03	1.1 ± 0.071	1.07 ± 0.03	1.07 ± 0.066	1.06 ± 0.026	1.1 ± 0.032
GSS (UniProt P48637)	0.981 ± 0.027	0.918 ± 0.062	0.9826 ± 0.0058	0.98 ± 0.027	0.9833 ± 0.0051	0.9621 ± 0.0045
UniProt P51148 and related entries	0.971 ± 0.058	0.9061 ± 0.0077	0.971 ± 0.047	1.05 ± 0.095	1.08 ± 0.12	1.03 ± 0.069
SEPHS1 (UniProt P49903)	1.007 ± 0.0076	0.982 ± 0.023	1 ± 0.015	0.979 ± 0.011	0.969 ± 0.016	0.929 ± 0.029
TRAPPC10 (UniProt P48553)	0.963 ± 0.015	0.935 ± 0.064	0.968 ± 0.043	0.952 ± 0.014	0.979 ± 0.045	0.961 ± 0.052
RAB28 (UniProt P51157)	1.01 ± 0.045	0.982 ± 0.045	1.01 ± 0.023	0.978 ± 0.055	0.996 ± 0.016	0.988 ± 0.025
UniProt P42684 and related entries	0.986 ± 0.014	0.991 ± 0.024	0.998 ± 0.018	0.984 ± 0.017	0.972 ± 0.016	0.9969 ± 0.0055
EIF2S3 (UniProt P41091)	1.02 ± 0.024	0.978 ± 0.053	1.03 ± 0.014	1.14 ± 0.085	1.15 ± 0.034	1.13 ± 0.028
KNTC1 (UniProt P50748)	0.914 ± 0.038	0.856 ± 0.086	0.946 ± 0.053	0.958 ± 0.038	0.987 ± 0.026	0.935 ± 0.075
TPMT (UniProt P51580)	0.997 ± 0.065	0.931 ± 0.035	0.98 ± 0.046	0.994 ± 0.075	1.03 ± 0.06	0.987 ± 0.083
UniProt P49116-2|P49116	0.976 ± 0.026	1 ± 0.019	0.974 ± 0.029	1.02 ± 0.021	0.958 ± 0.02	1.02 ± 0.039
HCCS (UniProt P53701)	1.03 ± 0.015	1.01 ± 0.052	1.03 ± 0.022	1.02 ± 0.016	1.02 ± 0.029	0.986 ± 0.05
SRP9 (UniProt P49458)	0.948 ± 0.085	1.06 ± 0.15	1.03 ± 0.12	1.21 ± 0.21	1.17 ± 0.089	1.12 ± 0.2
UniProt P48047	0.907 ± 0.042	0.912 ± 0.041	0.896 ± 0.051	0.96 ± 0.087	0.974 ± 0.045	0.938 ± 0.1
UniProt P46013 and related entries	1.058 ± 0.0011	1.12 ± 0.075	1.08 ± 0.035	1.07 ± 0.011	1.05 ± 0.024	1.1 ± 0.062
UniProt P49590 and related entries	0.979 ± 0.02	0.929 ± 0.095	0.963 ± 0.026	0.923 ± 0.014	0.951 ± 0.024	0.895 ± 0.041
HINT1 (UniProt P49773)	0.96 ± 0.012	0.983 ± 0.018	0.924 ± 0.022	0.96 ± 0.029	0.946 ± 0.042	0.899 ± 0.049

Target	NP40-soluble protein abundance (concentration: 1mM)	NP40-soluble protein abundance (concentration: 2mM)	NP40-soluble protein abundance (concentration: 4mM)	NP40-soluble protein abundance (concentration: 6mM)	NP40-soluble protein abundance (concentration: 8mM)	NP40-soluble protein abundance (concentration: 10mM)
RFX3 (UniProt P48380)	0.9907 ± 0.0079	1.005 ± 0.0034	0.97 ± 0.022	0.9769 ± 0.0063	1.005 ± 0.0064	0.9899 ± 0.0028
UniProt P53367 and related entries	1 ± 0.054	1 ± 0.039	0.993 ± 0.069	1.02 ± 0.052	0.968 ± 0.068	0.943 ± 0.067
UniProt P54886 and related entries	1.01 ± 0.034	0.942 ± 0.054	1.01 ± 0.03	1.01 ± 0.06	1.02 ± 0.065	0.997 ± 0.028
UniProt P51812	1.05 ± 0.03	0.941 ± 0.087	1.04 ± 0.015	0.961 ± 0.0088	1.052 ± 0.0055	0.931 ± 0.018
UniProt P53621 and related entries	0.9618 ± 0.0042	0.882 ± 0.097	0.93 ± 0.036	0.9305 ± 0.0074	0.965 ± 0.045	0.918 ± 0.045
UniProt P42331 and related entries	1.03 ± 0.043	0.992 ± 0.059	1.04 ± 0.053	0.969 ± 0.043	0.983 ± 0.052	0.976 ± 0.064
STT3A (UniProt P46977)	0.954 ± 0.022	0.882 ± 0.09	0.933 ± 0.027	0.991 ± 0.053	1.03 ± 0.025	0.974 ± 0.042
UniProt P54687 and related entries	0.984 ± 0.017	0.942 ± 0.055	0.94 ± 0.017	0.911 ± 0.013	0.918 ± 0.019	0.907 ± 0.046
UniProt P49005 and related entries	0.977 ± 0.021	0.947 ± 0.059	0.973 ± 0.027	0.929 ± 0.011	0.9339 ± 0.0057	0.925 ± 0.037
CLNS1A (UniProt P54105)	0.997 ± 0.037	1.03 ± 0.023	0.991 ± 0.049	0.949 ± 0.044	0.917 ± 0.041	0.926 ± 0.043
UniProt P43403 and related entries	1.025 ± 0.0049	0.978 ± 0.081	1.03 ± 0.036	1.05 ± 0.026	1.07 ± 0.012	1.05 ± 0.034
UniProt P54619 and related entries	0.993 ± 0.015	0.871 ± 0.092	0.964 ± 0.035	0.943 ± 0.025	1.01 ± 0.02	0.905 ± 0.045
YARS (UniProt P54577)	1.011 ± 0.0097	1.01 ± 0.023	0.981 ± 0.023	1.02 ± 0.015	0.991 ± 0.029	1 ± 0.061
NAMPT (UniProt P43490)	0.959 ± 0.025	0.903 ± 0.097	0.9559 ± 0.0052	0.966 ± 0.018	0.971 ± 0.01	0.936 ± 0.013
UniProt P49750-3|P49750-4	1.07 ± 0.027	1.17 ± 0.077	1.17 ± 0.015	1.23 ± 0.065	1.25 ± 0.07	1.35 ± 0.085
HSPA2 (UniProt P54652)	1.01 ± 0.025	1 ± 0.034	1.01 ± 0.0021	0.9977 ± 0.0056	1.01 ± 0.029	0.999 ± 0.017
CAPZA2 (UniProt P47755)	1.01 ± 0.013	0.966 ± 0.02	0.9851 ± 0.0046	0.9821 ± 0.0042	1.004 ± 0.0091	0.986 ± 0.017
UniProt P50579 and related entries	1.033 ± 0.0092	1.07 ± 0.042	1.04 ± 0.038	1.02 ± 0.015	1.01 ± 0.022	1.028 ± 0.0084
PIK3CG (UniProt P48736)	0.998 ± 0.041	0.976 ± 0.026	0.997 ± 0.023	0.98 ± 0.028	0.972 ± 0.023	0.959 ± 0.064
NOTCH1 (UniProt P46531)	1.03 ± 0.011	1.05 ± 0.041	1.01 ± 0.015	1.01 ± 0.028	0.9787 ± 0.008	0.969 ± 0.038
